Measured values taken from PubChem BioAssay AID504810 (National Center for Advancing Translational Sciences (NCATS), 2011).
Screen size: about 330,000 compounds; about 670 (0.2%) were called active. This list was built around the results that the source calls inconclusive (neither active nor inactive); the mix of calls is not that of the screen.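 How the source made its calls: active means activity change below a set negative limit, meaning inhibition stronger than a set level (cut at about -70% in these data); inconclusive means activity change between two set negative limits; inactive means the rest.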

Protein sequences, listed by entry. Tags and fused reporters are not part of them.
UniProt P16473, whole entry, looked up: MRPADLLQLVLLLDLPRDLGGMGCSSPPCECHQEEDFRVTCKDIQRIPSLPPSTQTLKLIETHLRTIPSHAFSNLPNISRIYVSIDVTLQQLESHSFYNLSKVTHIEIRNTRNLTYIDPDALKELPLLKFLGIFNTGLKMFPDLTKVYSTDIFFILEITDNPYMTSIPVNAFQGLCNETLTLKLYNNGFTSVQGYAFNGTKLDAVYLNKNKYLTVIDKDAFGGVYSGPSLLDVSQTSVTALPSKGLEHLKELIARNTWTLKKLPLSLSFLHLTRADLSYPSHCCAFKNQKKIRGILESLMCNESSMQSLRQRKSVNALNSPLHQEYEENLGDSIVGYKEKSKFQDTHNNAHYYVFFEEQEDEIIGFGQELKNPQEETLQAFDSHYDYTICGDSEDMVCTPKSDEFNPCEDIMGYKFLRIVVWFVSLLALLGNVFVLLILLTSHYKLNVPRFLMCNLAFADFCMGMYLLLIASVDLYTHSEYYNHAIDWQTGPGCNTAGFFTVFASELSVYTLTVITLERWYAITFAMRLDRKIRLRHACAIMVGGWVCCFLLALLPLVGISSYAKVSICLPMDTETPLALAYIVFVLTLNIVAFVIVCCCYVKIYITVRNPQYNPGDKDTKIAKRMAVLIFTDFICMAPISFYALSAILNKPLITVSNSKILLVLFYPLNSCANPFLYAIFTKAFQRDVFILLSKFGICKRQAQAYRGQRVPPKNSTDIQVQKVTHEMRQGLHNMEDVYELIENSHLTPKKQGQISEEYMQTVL

What follows are compounds tested against Thyrotropin receptor (Homo sapiens) (UniProt P16473) (assay: Antagonists of the Thyroid Stimulating Hormone Receptor: HTS campaign). Settings: TSHR-expressing cells, TSH-stimulated cAMP HTRF, 2 h; at 11.5 µM; stronger effect = lower value.
Summary of the method: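 Inhibition of cAMP made by TSHR-expressing cells under TSH stimulation (4nM final, EC80; 2 h, 37 deg C) is quantified with a one-step lysis HTRF kit, anti-cAMP cryptate versus cAMP-d2.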
On the % scale 0 is the no-effect control and ±100 the full control effect.

Structure (SMILES)	activity change, negative = inhibition
CC(C)COc1cccc(-c2cc(C(=O)Nc3ccon3)c3ccccc3n2)c1	active: -119%
O=C(Nc1ccc(Cl)c(S(=O)(=O)N2CCOCC2)c1)c1ccc(OCC2CCCO2)cc1 (configuration not stated)	active: -87.1%
CN1CCOc2ccc(S(=O)(=O)N3CCN(S(=O)(=O)c4c(F)cccc4F)CC3)cc21	inactive: -3.7%
O=C(c1cccc(S(=O)(=O)N2CCCCCC2)c1)N1CCN(c2ccccc2F)CC1	inactive: -2.29%
CCOC(=O)C1CCN(S(=O)(=O)c2c(Cl)ccc3nonc23)CC1	active: -89.9%
Cc1c(NC(=O)/C(C#N)=C/c2ccccc2)c(=O)n(-c2ccccc2)n1C	inactive: 0.384%
CC(C)(C)NC(=O)C(c1ccc(O)cc1)N(Cc1ccccc1)C(=O)CCC(=O)Nc1nccs1 (configuration not stated)	active: -98%
Cc1cccc(NC(=O)c2nc(S(=O)(=O)Cc3ccccc3)ncc2Cl)c1	inconclusive: -69.1%
Cc1oc2c(c1C(=O)c1ccccc1)C(=O)C(=O)c1ccccc1-2	inconclusive: -52.9%
NS(=O)(=O)c1ccc(NC(=O)c2cc(-c3cc(Cl)ccc3O)n[nH]2)cc1	inactive: 9.3%
CC(=O)NCCNc1nc2c(-c3cccc(C)c3)nnn2c2ccccc12	inactive: 5.55%
c1ccc2c(c1)CCN(c1ncnc3c1[nH]c1ccccc13)C2	inconclusive: -63.4%
COc1ccccc1C(NC(C)=O)c1cc(Cl)c2cccnc2c1O (configuration not stated)	inactive: -6.32%
CC(NC(=O)c1ccc([N+](=O)[O-])o1)C12CC3CC(CC(C3)C1)C2 (configuration not stated)	inconclusive: -58.8%
N#Cc1ccc(NC(=O)c2cc(-c3cccs3)on2)cc1	inactive: -11.1%
N#CC1=C(N)SC(N)=C(C#N)C1CCC1CCCCC1	inconclusive: -63%
COC(=O)c1ccc(/C=C/C(=O)OCC(=O)Nc2sccc2C(N)=O)cc1	inconclusive: -61.9%
CCOC(=O)N1CCN(C(=O)CCc2ccccc2)CC1	active: -128%
CCOC(=O)c1sc(NC(=O)CSc2n[nH]c(-c3ccncc3)n2)c(C#N)c1C	active: -74.5%
O=C(O)c1[nH]c2ccccc2c1-c1ccccc1	inconclusive: -53.8%
O=C(COc1ccc(-c2ccccc2)cc1)Nc1cccnc1	inconclusive: -57.4%

Compounds from the list above that contain two or more sulfur atoms:
Structure (SMILES)	activity change, negative = inhibition
CN1CCOc2ccc(S(=O)(=O)N3CCN(S(=O)(=O)c4c(F)cccc4F)CC3)cc21	inactive: -3.7%
CCOC(=O)c1sc(NC(=O)CSc2n[nH]c(-c3ccncc3)n2)c(C#N)c1C	active: -74.5%

(listing goes on)

Structure (SMILES)	activity change, negative = inhibition
O=C(COc1ccc(Cl)cc1)Nc1nc(-c2ccc(S(=O)(=O)N3CCOCC3)cc2)cs1	inconclusive: -53.8%
CCC(=O)OCCNc1cc(Sc2nc3ccccc3[nH]2)c2nonc2c1[N+](=O)[O-]	inconclusive: -58.6%
CCOC(=O)C(NC(=O)Nc1ccc(O)cc1)(c1ccccc1)C(F)(F)F (configuration not stated)	inactive: 2.86%
COc1cccc(NC(=O)Nc2nc(-c3ccc(OC)c(OC)c3)cs2)c1	active: -93.9%
Cc1ccc(NC(=O)Cn2nnc(C(=O)NCCc3ccccc3)c2N)c(C)c1	active: -107%
O=C(O)c1cnc(-c2ccccc2)nc1Sc1ccccc1	inconclusive: -51.8%
COc1cc(NC(=O)COc2cccc(C)c2C)ccc1NC(=O)c1ccco1	inconclusive: -61.4%
N/C(=N\S(=O)(=O)c1ccc(Cl)cc1)N1CCOCC1	inconclusive: -65%
N#CC1=C(N)SC(N)=C(C#N)C1c1cccc(O)c1	inactive: 16%
O=C(Nc1ccc(-c2nc3ccccc3o2)c(O)c1)c1cc(-n2cnnc2)ccc1Cl	inactive: -7.09%
CN(c1ccccc1C(=O)N1CCN(c2ccccc2F)CC1)S(=O)(=O)c1ccccc1	inconclusive: -68.1%
O=S(=O)(Nc1ccc2cn[nH]c2c1)c1cc(Br)ccc1Br	inconclusive: -67.1%
COc1cccc(-c2nc(CS(=O)(=O)CC(=O)N3CCCCC3)c(C)o2)c1	active: -96.9%
O=C(c1cc(COc2cccc3cnccc23)on1)N1CCCC(CCCO)C1 (configuration not stated)	inconclusive: -53.3%
Cc1nn(-c2ccc(N3CCOCC3)nn2)c(C)c1CCC(=O)NCc1ccccc1F	active: -105%
Cc1ccc(N2C(=O)C3C4C=CC(CC4)C3C2=O)cc1Cl (configuration not stated)	inconclusive: -53.7%
Cc1ccc(C(=O)N2CCN(Cc3ccc4c(c3)OCO4)CC2)cc1C	inactive: -14.8%
O=C(C#Cc1ccccc1)c1ccco1	inconclusive: -53%
CC(NC(=O)COC(=O)c1cc(NS(=O)(=O)c2ccc(Cl)c([N+](=O)[O-])c2)ccc1O)C1CC2CCC1C2 (configuration not stated)	inconclusive: -56.3%
Cc1ccc(S(=O)(=O)N[C@@H](Cc2ccccc2)C(=O)CCl)cc1	inconclusive: -50.8%
CCN(c1ccccc1)S(=O)(=O)c1ccc(NCC2COc3ccccc3O2)nc1 (configuration not stated)	inconclusive: -53.8%
